From publication PMC10163288
Some of the results follow.

B1: il10ra_site1_sap_17_mot_HHH_b2_01986_af2_000000130_0001_1_18_H_._HHH_b1_06455_0001_0000300035_0000002_0_0001 (protein)
chain: SSSSDEEVQELMRLAEEAAELDQNGNPEEARKVAEEAEELAEEAGNMNILMNIRHLLKLINSSSS
B2: il10ra_site1_normal_mot_HHH_b2_02337_000000026_0001_38_52_H_._HHH_b1_04115_0001_0000100013_0000001_0 (protein)
chain: SSSSDREERVEKLIEEAEELLEEGNPREASRVLQEAVRHAFESNDPELLRRIWELVQRIFNSSSS
B3: il10ra_site1_normal_mot_HHH_b1_05254_000000006_0001_1_19_H_._HHH_b2_07597_0001_0000500031_0000001_0_af2pred_0001 (protein)
chain: SSSSSDKEEVEEEVRRLLEEAEESDLEERQKLIREALHLALELNDPELLRLVREFARRLFSSSSS
B4: il10ra_site1_normal_mot_HHH_b1_03333_000000091_0001_1_17_H_._HHH_b1_03241_0001_0000400034_0000001_0 (protein)
chain: SSSSYEEVKELIKRIIELAREGNPEEAEEVLEELERLAEEENNPAVRFVVRLLEEVIKLQSSSSS
B5: il10ra_site1_sap_19_mot_HHH_b1_08281_000000266_0001_42_57_H_._HHH_b1_00478_0001_0000200011_0000001_0_0001 (protein)
chain: SSSSSALEIILEVMELALRGNPEEALELLREAQELAREAGNERLVEMIERLLESLERQLGSSSSS
B6: il10ra_site1_normal_mot_HHH_b2_08143_000000031_0001_38_55_H_._HHH_b2_03077_af2_0001_0000600033_0000001_0 (protein)
chain: SSSSSDREEELQVEALLWFAKQIHNPEALEIALEEAERIARELGNEELEEEVEEVKKELSSSSSS
B7: il10ra_site1_normal_mot_HHH_b2_02116_af2_000000165_0001_41_55_H_._HHH_b2_02079_af2_0001_0000200009_0000001_0 (protein)
chain: SSSSSEEEHLVKTALRLAEEALRAGDPESARRLVRAARILAEENNDEELERLVEEVEKLVNSSSS
B8: il10ra_site1_sap_23_mot_HHH_b2_03568_000000058_0001_1_19_H_._HHH_b1_01191_0001_0000100003_0000001_0_0001 (protein)
chain: SSSSSSSEEERVEELLEEAREIEDRRRVIRLLLEALQLAIQLKDAELLREIWELFHRLSSSSSSS
B9: il10ra_site1_sap_17_mot_HHH_b2_02053_af2_000000006_0001_3_19_H_._HHH_b1_01685_0001_0000100014_0000002_0_0001_af2pred_0001 (protein)
chain: SSSSSIEEKVSELAFEAAELALRGNPEEAEELLEEVERLAKELNDPKLEEAVRILKRFIELSSSS
B10: il10ra_site1_sap_22_mot_HHH_b2_01447_af2_000000258_0001_1_20_H_._HHH_b1_02808_af2_0001_0000200010_0000001_0_0001 (protein)
chain: SSSSSELYRLSREVAELLANGNPEEAQRVIEEAERLAEELNNRVVLYNIRILLRSVELLLRSSSS
B11: il10ra_site1_sap_20_mot_HHH_b1_01886_000000262_0001_1_18_H_._HHH_b1_05552_af2_0001_0000500031_0000001_0_0001_af2pred_dldesign_0_af2pred (protein)
chain: SSSSSDLAAVLAEAEALFARSKTVSPEEKEVILQRIVDLALKHENLEVAKLANELLKELSSSSSS
B12: il10ra_site1_normal_mot_HHH_b1_05357_000000034_0001_23_39_H_._HHH_b1_00943_0002_0000400044_0000001_0_af2pred_0001 (protein)
chain: SSSSSSSKEEVERLLEEAEHVDDPRELAYLLTRAFAIAYRLGDPELEELVKEVAIRLISSSSSSS
B13: il10ra_site1_normal_mot_HHH_b2_07006_000000108_0001_1_19_H_._HHH_b2_08013_af2_0001_0000100001_0000001_0 (protein)
chain: SSSSDEAYRIAREAIEEAIELQRNGNPEEAEELLREAIREVEELGNTAARWALRHLLRLVSSSSS
B14: il10ra_site1_sap_13_mot_HHH_b1_06819_af2_000000053_0001_23_38_H_._ems_3hC_185_af2_0001_0000500012_0000001_0_0001 (protein)
chain: SSSSTEEEIERLLREAEEAEEEGNPEEAIEILLEAIRLAYQLGDEEVLQRIWELVLELAKRSSSS
B15: il10ra_site1_normal_mot_HHH_b2_07440_af2_000000021_0001_1_18_H_._HHH_b1_06862_af2_0001_0000300034_0000001_0 (protein)
chain: SSSSDELERVLELSKEAFRLLLRGNPEEAEELLEEARKLAEELGDERLLEVIEDLLRAINSSSSS
B16: il10ra_site1_normal_mot_HHH_b1_03859_af2_000000004_0001_44_57_H_._HHH_b1_04060_af2_0001_0000100001_0000002_0 (protein)
chain: SSSSSSEEEKYVKLALHFAEALEDPEAARLLLRAALEIARNANDEELEREVEKKLEEVEKSSSSS
B17: il10ra_site1_normal_mot_HHH_b1_00999_000000080_0001_41_55_H_._HHH_b2_04674_0001_0000100003_0000002_0 (protein)
chain: SSSSDEEERELEELLEELKELVEKGDEERFLRVIQELIRLAFRLSDQEALRKLWELARELGSSSS
B18: il10ra_site1_normal_mot_HHH_b1_05056_000000217_0001_1_20_H_._HHH_b2_00620_0001_0000300031_0000002_0 (protein)
chain: SSSSDEEEVEEIKKEIERAIEEGNREEALELLQRAVQLAYRLKDEELLRELWELVKLVADSSSSS
B19: il10ra_site1_sap_16_mot_HHH_b2_00092_000000181_0001_22_39_H_._750e19d4ca9b34c144e44c01c74de867_0001_af2_0001_0000300026_0000001_0_0001 (protein)
chain: SSSSDEEEVEELIKEIEELLEEGDPHKAVELIRRLAELAHELEDPELARIVLRLSREVVDISSSS
B20: il10ra_site1_normal_mot_HHH_b2_00273_000000062_0001_23_39_H_._HHH_b1_02510_0001_0000300045_0000001_1 (protein)
chain: SSSSDEEERELEELLEELEELLRKNNREEFLRLAIEVIQLAFRLGDQEVLQRVVELVRRLASSSS
B21: il10ra_site1_normal_mot_HHH_b2_07569_000000265_0001_38_56_H_._HHH_b2_07241_0001_0000500014_0000001_0 (protein)
chain: SSSSDLEEEVEELLEEAKHIKDPREVAELLLRATQLAFRANDPRLVQLVWEVAKKIFKELSSSSS
B22: il10ra_site1_sap_18_mot_HHH_b2_02022_af2_000000170_0001_1_16_H_._HHH_b2_06062_af2_0001_0000600006_0000001_0_0001 (protein)
chain: SSSSDAAEALSEQLKKALELALENNDEEALEWALRNAKNVARLANDEELEEVIEEVEKLISSSSS
B23: il10ra_site1_sap_21_mot_HHH_b1_05377_000000047_0001_42_55_H_._HHH_b2_07861_af2_0001_0000100010_0000001_0_0001 (protein)
chain: SSSSDLARRIYEALREAAKLDSDGNPEEAEELVKEAAELAEENNNRVMLALLENLLKLIEGSSSS
B24: il10ra_site1_sap_25_mot_HHH_b1_06837_000000150_0001_20_37_H_._HHH_b1_06434_af2_0001_0000900100_0000001_0_0001 (protein)
chain: SSSSDEEEERIRELLEEVEELLKEGNFEEALELAQEALRLIYRASNEELLHELWRIITKNSSSSS

Biological target: il10ra, Q13651
Assay: yeast display titration

Apparent Kd, inactive:
B1 no binding seen, B2 no binding seen, B3 no binding seen, B4 no binding seen, B5 no binding seen, B6 no binding seen, B7 no binding seen, B8 no binding seen, B9 no binding seen, B10 no binding seen, B11 no binding seen, B12 no binding seen, B13 no binding seen, B14 no binding seen, B15 no binding seen, B16 no binding seen, B17 no binding seen, B18 no binding seen, B19 no binding seen, B20 no binding seen, B21 no binding seen, B22 no binding seen, B23 no binding seen, B24 no binding seen
